Laboratory results from PMC12236914.
Results are given in words; binding and its absence hold for the method and conditions named. In cells and extracts the contact can be indirect.

The chains behind the UniProt entries cited, without tags or fusion partners. Where a name states a change or a piece, a line headed by the entry shows the natural chain unless it says otherwise.
UniProt P39748: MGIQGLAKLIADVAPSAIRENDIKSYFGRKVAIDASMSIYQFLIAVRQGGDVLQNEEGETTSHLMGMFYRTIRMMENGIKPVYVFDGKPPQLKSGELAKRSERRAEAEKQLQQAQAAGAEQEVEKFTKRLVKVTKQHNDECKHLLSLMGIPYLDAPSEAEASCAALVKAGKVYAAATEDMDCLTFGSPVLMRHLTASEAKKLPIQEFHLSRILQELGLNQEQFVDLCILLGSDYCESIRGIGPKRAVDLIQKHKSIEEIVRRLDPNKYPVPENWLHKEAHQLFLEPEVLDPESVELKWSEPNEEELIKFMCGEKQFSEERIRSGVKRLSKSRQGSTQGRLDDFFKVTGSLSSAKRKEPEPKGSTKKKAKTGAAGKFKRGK
UniProt O15360: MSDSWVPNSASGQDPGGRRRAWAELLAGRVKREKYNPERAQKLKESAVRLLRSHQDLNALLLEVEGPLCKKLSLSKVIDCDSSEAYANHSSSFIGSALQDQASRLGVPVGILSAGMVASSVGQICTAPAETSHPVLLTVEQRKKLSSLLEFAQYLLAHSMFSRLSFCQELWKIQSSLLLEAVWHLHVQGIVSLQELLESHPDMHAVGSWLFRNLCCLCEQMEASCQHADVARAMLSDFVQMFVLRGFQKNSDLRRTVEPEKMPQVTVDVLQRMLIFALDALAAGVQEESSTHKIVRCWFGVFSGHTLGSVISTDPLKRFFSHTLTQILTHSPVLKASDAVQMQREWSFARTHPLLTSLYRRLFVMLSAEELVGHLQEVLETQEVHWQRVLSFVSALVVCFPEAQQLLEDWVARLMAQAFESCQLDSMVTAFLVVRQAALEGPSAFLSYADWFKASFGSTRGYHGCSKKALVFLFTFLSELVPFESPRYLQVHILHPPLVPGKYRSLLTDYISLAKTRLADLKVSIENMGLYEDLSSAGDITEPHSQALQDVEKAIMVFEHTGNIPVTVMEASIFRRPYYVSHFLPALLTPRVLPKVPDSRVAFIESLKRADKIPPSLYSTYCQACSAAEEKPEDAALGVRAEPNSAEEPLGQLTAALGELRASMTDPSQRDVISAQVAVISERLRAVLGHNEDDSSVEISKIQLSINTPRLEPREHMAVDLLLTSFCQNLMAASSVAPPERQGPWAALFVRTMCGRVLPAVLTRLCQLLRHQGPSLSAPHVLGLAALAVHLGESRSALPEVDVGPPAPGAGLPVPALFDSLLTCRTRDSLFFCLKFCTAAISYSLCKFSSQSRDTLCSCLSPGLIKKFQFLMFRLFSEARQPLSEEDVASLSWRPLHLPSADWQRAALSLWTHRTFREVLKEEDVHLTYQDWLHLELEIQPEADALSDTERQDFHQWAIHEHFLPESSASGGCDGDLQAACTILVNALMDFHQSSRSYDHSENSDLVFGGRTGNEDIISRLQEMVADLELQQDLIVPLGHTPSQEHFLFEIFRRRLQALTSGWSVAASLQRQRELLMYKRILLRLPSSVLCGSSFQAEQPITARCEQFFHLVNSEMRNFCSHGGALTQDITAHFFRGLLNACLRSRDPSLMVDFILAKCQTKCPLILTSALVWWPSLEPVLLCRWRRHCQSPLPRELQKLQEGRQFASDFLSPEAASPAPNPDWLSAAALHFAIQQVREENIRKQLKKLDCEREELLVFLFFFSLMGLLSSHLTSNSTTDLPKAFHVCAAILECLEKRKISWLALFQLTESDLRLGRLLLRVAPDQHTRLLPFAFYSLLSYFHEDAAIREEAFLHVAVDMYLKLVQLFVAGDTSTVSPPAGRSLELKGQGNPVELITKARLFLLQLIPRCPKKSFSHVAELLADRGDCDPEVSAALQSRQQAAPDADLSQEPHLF

Target: Flag-tagged FEN1 (UniProt P39748)
Test: co-IP; anti-Flag antibody to pull down Flag-tagged FEN1 from whole cell lysate, HA-tagged FANCA constructs (doxycycline-inducible), Western blot; NETN lysis buffer

binding	Substance
no binding	FANCA ΔD4 mutant (from UniProt O15360) (domain or fragment)
no binding	FANCA ΔD5 mutant (from UniProt O15360) (domain or fragment)
